Experimental data: PubChem BioAssay AID1259405 (NCATS, 2018)
Aim: 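Knock-downs that lift recombinant protein yield in hamster ovary cells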 (primary screen). Cell system: Chinese hamster CHO-K1 ovary cells with stable secreted eGFP expression. Knock-down reagent: single siRNA against mouse genes, 0.8 pmol siRNA per well (2 µl of 400 nM stock). Time to read-out: 3 days. Read-out: 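Percent of the per-plate non-targeting control median for intracellular GFP per well by laser scanning cytometry and for cell viability by ATP luminescence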. Direction: GFP, % of control: higher = more GFP per well, higher productivity; viability (ATP), % of control: higher = more viable cells (more ATP). Active means: 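a knock-down is called active if GFP reaches 120% or more of non-targeting control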.
This is an unselected part of about 50,000 reagents tested. Over the whole deposit, about 4,000 (8%) were called active. 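Mouse siRNA library applied to hamster cells; one well for each siRNA.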 A number with no mark means an inactive call. The numbers tell different reagents against one gene apart.

| gene | siRNA no. | GFP, % of control | viability (ATP), % of control |
| --- | --- | --- | --- |
| Sprr1a | 1 | 126 (active) | 85.8 |
| Sprr1a | 2 | 53.5 | 63 |
| Zbtb46 | 1 | 82.3 | 93.3 |
| Zbtb46 | 2 | 74.7 | 60.4 |
| Zbtb46 | 3 | 132 (active) | 117 |
| Pdcd2 | 1 | 84.5 | 80.7 |
| Pdcd2 | 2 | 110 | 142 |
| Magoh | 1 | 41.8 | 80.4 |
| Magoh | 2 | 68.7 | 83.1 |
| Magoh | 3 | 89.7 | 63.7 |
| Tbc1d17 | 1 | 136 (active) | 112 |
| Tbc1d17 | 2 | 119 | 116 |
| Tbc1d17 | 3 | 117 | 89.4 |
| B4galt5 | 1 | 105 | 108 |
| B4galt5 | 2 | 65.6 | 73.6 |
| B4galt5 | 3 | 92.8 | 105 |
| Olfml1 | 1 | 98.1 | 119 |
| Olfml1 | 2 | 82.8 | 79.1 |
| Olfml1 | 3 | 66.9 | 66 |
| Bmp7 | 1 | 95.9 | 99.2 |
| Bmp7 | 2 | 79.3 | 89.9 |
| Btbd16 | 1 | 37.6 | 71.8 |
| Btbd16 | 2 | 119 | 95.9 |
| Btbd16 | 3 | 67 | 87.3 |
| Selenov | 1 | 83.1 | 94.3 |
| Selenov | 2 | 88.2 | 90.2 |
| Selenov | 3 | 87 | 81.9 |
| Dus3l | 1 | 72.4 | 55.7 |
| Dus3l | 2 | 40.9 | 70.6 |
| Dus3l | 3 | 98.1 | 63.2 |
| Anxa3 | 1 | 132 (active) | 122 |
| Anxa3 | 2 | 74.8 | 120 |
| Anxa3 | 3 | 44.3 | 72.2 |
| Kcnip4 | 1 | 37.8 | 45.1 |
| Kcnip4 | 2 | 50 | 49.5 |
| Kcnip4 | 3 | 96.7 | 72.9 |
| Msrb3 | 1 | 104 | 47.8 |
| Msrb3 | 2 | 70.5 | 72.3 |
| Msrb3 | 3 | 52.6 | 46 |
| Prap1 | 1 | 121 (active) | 54.9 |
| Prap1 | 2 | 143 (active) | 57.4 |
| Prap1 | 3 | 137 (active) | 103 |
| Or1e1 | 1 | 71.8 | 63.8 |
| Or1e1 | 2 | 93.9 | 77 |
| Or1e1 | 3 | 77.5 | 41.7 |
| Slc27a4 | 1 | 115 | 90.5 |
| Slc27a4 | 2 | 84.5 | 75.7 |
| Slc27a4 | 3 | 88.2 | 115 |
| Hspa13 | 1 | 129 (active) | 134 |
| Hspa13 | 2 | 92.5 | 87.2 |
| Nop58 | 1 | 102 | 74.8 |
| Nop58 | 2 | 59.5 | 68.3 |
| Rab36 | 1 | 143 (active) | 126 |
| Rab36 | 2 | 115 | 90.8 |
| Rab36 | 3 | 44.3 | 44.8 |
| Ppp1ca | 1 | 78.2 | 45.6 |
| Ppp1ca | 2 | 39.1 | 47.5 |
| Ppp1ca | 3 | 77.8 | 65.2 |
| Ap4s1 | 1 | 103 | 60.9 |
| Ap4s1 | 2 | 46.7 | 42.6 |
| Ap4s1 | 3 | 58.9 | 91.3 |
| Tbx5 | 1 | 58.5 | 84.8 |
| Tbx5 | 2 | 78.7 | 74.7 |
| Tbx5 | 3 | 82 | 98.1 |
| Or11i1 | 1 | 35.2 | 19 |
| Or11i1 | 2 | 66.5 | 50.1 |
| Or11i1 | 3 | 71.5 | 49.1 |
| Lcor | 1 | 51.4 | 43.6 |
| Lcor | 2 | 88.3 | 77.9 |
| Lcor | 3 | 57.9 | 56 |
| Ankrd13a | 1 | 72.4 | 78.1 |
| Ankrd13a | 2 | 112 | 105 |
| Ankrd13a | 3 | 217 (active) | 72.1 |
| Pon3 | 1 | 135 (active) | 107 |
| Pon3 | 2 | 89.8 | 103 |
| Pon3 | 3 | 57.6 | 93.7 |
| Hand2 | 1 | 86.8 | 59.3 |
| Hand2 | 2 | 100 | 93.7 |
| Kif5a | 1 | 97.6 | 82.3 |
| Kif5a | 2 | 117 | 97.6 |
| Cdkn1c | 1 | 67.9 | 83.8 |
| Cdkn1c | 2 | 76.3 | 57.3 |
| Mrps10 | 1 | 116 | 60 |
| Mrps10 | 2 | 120 (active) | 58.1 |
| Mrps10 | 3 | 92.3 | 49.8 |
